No constants are given. Whether binding was seen depends on the method and setting. Binding seen in cells or lysates may run through a third protein. Some results given as binding are weak or reduced against the parent protein; the word gives no strength.

Amino acid sequences for entries named in this document (tags omitted). Residues count along the entry.
UniProt Q66HF1, residues 24-727: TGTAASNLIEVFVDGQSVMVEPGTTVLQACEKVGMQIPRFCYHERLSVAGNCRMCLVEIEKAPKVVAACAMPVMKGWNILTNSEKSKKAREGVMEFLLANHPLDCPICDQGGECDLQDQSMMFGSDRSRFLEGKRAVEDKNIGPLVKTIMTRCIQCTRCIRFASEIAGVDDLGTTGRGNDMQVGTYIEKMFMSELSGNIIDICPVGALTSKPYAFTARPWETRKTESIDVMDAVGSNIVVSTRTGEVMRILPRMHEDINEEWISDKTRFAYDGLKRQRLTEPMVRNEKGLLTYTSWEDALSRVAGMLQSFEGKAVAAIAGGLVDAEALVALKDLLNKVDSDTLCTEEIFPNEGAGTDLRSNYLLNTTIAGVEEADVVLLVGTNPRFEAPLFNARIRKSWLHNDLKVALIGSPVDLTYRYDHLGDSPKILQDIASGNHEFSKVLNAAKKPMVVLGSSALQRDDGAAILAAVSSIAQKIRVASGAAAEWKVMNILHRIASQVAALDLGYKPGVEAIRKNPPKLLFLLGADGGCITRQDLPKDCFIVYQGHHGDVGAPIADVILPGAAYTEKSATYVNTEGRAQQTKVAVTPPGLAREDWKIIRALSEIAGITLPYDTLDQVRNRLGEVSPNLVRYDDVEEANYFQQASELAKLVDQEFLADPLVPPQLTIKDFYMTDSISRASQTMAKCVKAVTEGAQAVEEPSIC
UniProt Q5SGE0, residues 78-1392: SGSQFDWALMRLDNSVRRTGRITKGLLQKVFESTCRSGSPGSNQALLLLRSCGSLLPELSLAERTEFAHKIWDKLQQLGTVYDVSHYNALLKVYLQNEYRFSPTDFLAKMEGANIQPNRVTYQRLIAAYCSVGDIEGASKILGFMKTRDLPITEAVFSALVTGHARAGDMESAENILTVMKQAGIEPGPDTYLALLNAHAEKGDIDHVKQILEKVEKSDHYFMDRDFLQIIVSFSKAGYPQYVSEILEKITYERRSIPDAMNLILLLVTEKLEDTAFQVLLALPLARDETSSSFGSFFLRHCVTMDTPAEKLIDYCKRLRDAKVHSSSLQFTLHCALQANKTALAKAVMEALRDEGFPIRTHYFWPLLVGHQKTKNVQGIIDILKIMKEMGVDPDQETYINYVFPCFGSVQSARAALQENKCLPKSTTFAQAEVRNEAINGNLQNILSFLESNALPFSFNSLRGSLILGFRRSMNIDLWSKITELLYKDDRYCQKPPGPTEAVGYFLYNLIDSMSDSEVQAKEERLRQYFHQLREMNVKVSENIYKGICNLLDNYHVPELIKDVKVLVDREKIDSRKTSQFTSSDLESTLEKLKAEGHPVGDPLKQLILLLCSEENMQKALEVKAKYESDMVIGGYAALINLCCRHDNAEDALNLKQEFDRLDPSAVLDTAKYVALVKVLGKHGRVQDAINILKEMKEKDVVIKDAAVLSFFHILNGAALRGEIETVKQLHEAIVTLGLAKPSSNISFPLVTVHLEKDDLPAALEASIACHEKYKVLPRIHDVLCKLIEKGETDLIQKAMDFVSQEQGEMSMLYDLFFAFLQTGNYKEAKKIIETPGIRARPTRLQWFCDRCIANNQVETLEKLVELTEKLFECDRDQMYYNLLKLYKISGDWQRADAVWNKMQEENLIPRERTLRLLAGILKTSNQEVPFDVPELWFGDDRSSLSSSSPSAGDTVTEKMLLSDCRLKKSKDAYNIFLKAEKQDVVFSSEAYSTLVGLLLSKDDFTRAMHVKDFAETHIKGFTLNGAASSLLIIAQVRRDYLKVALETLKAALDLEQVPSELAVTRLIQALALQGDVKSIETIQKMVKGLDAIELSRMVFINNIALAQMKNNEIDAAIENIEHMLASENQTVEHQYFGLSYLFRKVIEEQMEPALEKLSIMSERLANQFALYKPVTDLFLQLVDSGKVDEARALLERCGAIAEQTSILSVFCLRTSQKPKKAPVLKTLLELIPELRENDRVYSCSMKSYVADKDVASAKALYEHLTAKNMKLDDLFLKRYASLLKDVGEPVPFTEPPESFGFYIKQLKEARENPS

Assay [1] deals with NADH: ubiquinone oxidoreductase core subunit S1 (rat (endogenous in SD rat cortical neurons and SD rat tissue)) (UniProt Q66HF1). Briefly: co-IP; natural total protein of cultured rat cortical neurons (control and OGD/R groups) incubated with anti-NDUFS1 antibody overnight at 4°C, then protein A/G agarose at 4°C overnight; Western blot for LRPPRC and NDUFA11, normalised to the IP band of NDUFS1. Background: A western blot detects proteins with antibodies after separation by electrophoresis.

Assay [2] shares this target. Briefly: co-IP; natural total protein of SD rats (sham and MCAO groups, 7 days after the operation) incubated with anti-NDUFS1 antibody overnight at 4°C, then protein A/G agarose at 4°C overnight; Western blot for LRPPRC and NDUFA11, normalised to the IP band of NDUFS1.
Assay [3] shares this target. Described as above. The source holds these as a separate data set.

Consider “Leucine-rich pentatricopeptide repeat-containing (from UniProt Q5SGE0 78-1392)”, for which the binding entry in assay [1] and in assay [2] was “binds” each time.

B1: NADH dehydrogenase [ubiquinone] 1 alpha subcomplex subunit 11 (protein, UniProt Q80W89 1-141)
chain: MAKRFFEAYNETPDGTQCHRKAYITTALGGLCGLISSAYSITHNPADSPLEAVARVGRFTFTAAAIGAMFGLTTCVSAQVREKPDDPLNYFIGGCAGGLTLGARTHSYGTAAIGCVYMGTAAALFKMGKLEGWELFATPKV
As for B1, the binding result in assay [1] and in assay [3] was “binds” throughout.

Values taken from publication PMC11772302.
